# Assay results taken from patent US8071325B2, “Flow cytometric method and kit for metal-induced sensitivity” (The Trustees of the University of Pennsylvania, priority 2004, dated 2011).
# System: T cells from a beryllium-sensitive individual
# Assay: Surface versus intracellular CD4/CD8 staining of CFSE-labeled T cells cultured with beryllium sulfate
# Format: cell-based, human
# Details: seven days with 10 or 100 μM, representative example
smiles,measurement,setting,value
"O=S(=O)([O-])[O-].[Be+2] [Be, beryllium sulfate]",CD4+ low population of the T cell population (surface staining),gated on CD3+ T cells,37.3%
same,CD4+ CD8- cells with intracellular staining,permeabilized cells,58.3%
same,"CD8+ cells, surface and intracellular staining identical",,7.6%
